Measurements: the supplement of paper PMC10849652
This is one part of the list.

Sequences of proteins named here, by UniProt entry; tags and fusion partners are left off. A change or cut given only in a name is not applied to a line headed by its entry.
UniProt Q16656: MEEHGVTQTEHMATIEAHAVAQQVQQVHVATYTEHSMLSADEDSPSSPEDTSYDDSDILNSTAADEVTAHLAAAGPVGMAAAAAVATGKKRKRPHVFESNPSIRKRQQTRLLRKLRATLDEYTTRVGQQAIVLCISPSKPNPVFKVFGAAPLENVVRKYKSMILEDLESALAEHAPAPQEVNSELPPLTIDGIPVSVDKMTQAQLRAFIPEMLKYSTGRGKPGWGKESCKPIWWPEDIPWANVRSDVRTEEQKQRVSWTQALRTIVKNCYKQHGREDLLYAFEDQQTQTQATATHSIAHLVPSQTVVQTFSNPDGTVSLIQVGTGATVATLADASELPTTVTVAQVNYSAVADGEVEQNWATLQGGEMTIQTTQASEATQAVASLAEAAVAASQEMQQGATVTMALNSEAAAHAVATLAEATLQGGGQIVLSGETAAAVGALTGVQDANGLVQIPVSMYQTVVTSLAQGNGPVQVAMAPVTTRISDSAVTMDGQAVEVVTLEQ
UniProt Q8TAT6: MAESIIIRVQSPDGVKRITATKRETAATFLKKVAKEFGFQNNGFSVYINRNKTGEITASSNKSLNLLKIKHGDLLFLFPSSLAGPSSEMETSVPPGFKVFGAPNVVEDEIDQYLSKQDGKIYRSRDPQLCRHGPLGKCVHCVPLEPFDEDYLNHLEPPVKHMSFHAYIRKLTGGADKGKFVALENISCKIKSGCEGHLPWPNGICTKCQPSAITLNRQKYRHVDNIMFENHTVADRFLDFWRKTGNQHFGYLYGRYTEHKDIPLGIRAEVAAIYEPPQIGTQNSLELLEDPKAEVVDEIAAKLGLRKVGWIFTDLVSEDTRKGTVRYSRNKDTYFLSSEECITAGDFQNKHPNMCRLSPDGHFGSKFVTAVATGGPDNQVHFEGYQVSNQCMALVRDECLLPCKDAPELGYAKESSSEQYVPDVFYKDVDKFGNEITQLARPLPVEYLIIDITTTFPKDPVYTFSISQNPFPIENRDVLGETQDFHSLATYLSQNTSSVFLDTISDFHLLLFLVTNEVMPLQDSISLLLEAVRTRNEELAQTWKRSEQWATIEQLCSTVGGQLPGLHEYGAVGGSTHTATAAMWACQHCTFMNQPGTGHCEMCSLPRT
UniProt Q96IY1: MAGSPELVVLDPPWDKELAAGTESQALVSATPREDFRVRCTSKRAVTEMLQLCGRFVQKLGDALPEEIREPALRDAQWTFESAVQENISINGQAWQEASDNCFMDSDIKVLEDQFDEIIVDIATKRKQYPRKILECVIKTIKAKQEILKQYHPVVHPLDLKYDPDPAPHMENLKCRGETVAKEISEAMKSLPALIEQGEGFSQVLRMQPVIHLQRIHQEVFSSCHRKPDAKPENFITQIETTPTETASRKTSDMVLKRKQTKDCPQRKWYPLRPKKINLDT
UniProt P0C024: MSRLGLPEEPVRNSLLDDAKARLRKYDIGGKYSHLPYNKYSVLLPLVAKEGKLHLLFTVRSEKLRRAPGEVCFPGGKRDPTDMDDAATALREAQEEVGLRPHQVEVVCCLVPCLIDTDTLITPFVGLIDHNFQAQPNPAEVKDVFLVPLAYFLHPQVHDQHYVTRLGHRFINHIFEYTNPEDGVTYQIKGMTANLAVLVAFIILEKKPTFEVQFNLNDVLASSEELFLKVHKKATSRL
UniProt Q8TCD5: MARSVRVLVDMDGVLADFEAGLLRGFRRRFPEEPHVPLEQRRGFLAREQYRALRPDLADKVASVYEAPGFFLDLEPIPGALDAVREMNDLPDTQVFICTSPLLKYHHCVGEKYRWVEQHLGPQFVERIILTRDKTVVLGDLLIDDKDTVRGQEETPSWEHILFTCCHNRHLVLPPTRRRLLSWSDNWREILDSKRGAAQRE
UniProt Q86UY8: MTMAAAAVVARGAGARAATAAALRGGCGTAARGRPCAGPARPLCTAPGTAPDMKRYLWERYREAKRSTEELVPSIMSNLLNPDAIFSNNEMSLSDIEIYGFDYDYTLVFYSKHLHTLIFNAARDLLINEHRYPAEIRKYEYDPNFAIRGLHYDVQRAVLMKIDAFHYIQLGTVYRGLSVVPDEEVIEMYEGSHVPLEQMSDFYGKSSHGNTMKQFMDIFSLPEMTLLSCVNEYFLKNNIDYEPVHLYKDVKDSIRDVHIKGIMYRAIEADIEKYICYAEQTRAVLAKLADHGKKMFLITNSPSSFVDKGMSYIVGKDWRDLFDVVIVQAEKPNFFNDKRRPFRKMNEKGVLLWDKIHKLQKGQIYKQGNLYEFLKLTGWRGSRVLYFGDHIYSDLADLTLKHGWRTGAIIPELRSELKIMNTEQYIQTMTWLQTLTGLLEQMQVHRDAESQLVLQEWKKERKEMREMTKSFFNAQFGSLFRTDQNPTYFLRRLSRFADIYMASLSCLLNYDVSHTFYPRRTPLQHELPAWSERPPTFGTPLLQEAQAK
UniProt Q9HAN9, whole entry, looked up: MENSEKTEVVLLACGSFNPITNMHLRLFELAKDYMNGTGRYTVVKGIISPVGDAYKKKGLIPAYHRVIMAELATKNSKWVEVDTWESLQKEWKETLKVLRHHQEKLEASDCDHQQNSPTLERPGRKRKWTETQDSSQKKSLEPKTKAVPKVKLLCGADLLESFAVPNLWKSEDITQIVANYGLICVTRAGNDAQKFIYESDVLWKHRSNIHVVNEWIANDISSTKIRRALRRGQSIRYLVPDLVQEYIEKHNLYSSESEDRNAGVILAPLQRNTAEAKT
UniProt Q9BSD7: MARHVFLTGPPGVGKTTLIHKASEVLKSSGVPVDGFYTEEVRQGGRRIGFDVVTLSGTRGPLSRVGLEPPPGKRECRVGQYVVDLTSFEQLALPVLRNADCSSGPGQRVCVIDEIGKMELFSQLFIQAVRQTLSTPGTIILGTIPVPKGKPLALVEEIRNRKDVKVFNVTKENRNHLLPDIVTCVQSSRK
UniProt Q9BV86: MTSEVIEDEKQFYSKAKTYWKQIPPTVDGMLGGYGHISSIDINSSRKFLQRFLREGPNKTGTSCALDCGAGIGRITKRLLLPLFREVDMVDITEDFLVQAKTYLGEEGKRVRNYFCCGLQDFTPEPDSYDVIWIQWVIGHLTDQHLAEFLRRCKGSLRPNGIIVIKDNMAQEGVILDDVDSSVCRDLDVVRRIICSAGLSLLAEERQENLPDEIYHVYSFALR
UniProt Q86U38: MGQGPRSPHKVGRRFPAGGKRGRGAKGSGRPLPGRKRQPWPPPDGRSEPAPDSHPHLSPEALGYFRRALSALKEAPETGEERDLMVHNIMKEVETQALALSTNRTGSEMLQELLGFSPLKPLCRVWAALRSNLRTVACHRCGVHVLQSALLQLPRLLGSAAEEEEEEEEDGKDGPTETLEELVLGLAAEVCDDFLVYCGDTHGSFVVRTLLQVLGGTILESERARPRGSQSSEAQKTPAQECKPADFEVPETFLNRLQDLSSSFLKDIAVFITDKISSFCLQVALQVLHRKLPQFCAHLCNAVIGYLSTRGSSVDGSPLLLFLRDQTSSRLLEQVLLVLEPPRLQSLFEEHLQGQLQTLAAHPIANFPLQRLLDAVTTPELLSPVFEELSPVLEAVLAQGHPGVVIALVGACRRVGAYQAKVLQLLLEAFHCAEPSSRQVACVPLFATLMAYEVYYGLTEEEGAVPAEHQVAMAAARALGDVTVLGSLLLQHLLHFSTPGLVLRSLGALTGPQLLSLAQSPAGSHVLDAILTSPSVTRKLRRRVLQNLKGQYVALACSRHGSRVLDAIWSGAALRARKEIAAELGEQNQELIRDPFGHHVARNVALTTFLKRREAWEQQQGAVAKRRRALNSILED
UniProt Q13423: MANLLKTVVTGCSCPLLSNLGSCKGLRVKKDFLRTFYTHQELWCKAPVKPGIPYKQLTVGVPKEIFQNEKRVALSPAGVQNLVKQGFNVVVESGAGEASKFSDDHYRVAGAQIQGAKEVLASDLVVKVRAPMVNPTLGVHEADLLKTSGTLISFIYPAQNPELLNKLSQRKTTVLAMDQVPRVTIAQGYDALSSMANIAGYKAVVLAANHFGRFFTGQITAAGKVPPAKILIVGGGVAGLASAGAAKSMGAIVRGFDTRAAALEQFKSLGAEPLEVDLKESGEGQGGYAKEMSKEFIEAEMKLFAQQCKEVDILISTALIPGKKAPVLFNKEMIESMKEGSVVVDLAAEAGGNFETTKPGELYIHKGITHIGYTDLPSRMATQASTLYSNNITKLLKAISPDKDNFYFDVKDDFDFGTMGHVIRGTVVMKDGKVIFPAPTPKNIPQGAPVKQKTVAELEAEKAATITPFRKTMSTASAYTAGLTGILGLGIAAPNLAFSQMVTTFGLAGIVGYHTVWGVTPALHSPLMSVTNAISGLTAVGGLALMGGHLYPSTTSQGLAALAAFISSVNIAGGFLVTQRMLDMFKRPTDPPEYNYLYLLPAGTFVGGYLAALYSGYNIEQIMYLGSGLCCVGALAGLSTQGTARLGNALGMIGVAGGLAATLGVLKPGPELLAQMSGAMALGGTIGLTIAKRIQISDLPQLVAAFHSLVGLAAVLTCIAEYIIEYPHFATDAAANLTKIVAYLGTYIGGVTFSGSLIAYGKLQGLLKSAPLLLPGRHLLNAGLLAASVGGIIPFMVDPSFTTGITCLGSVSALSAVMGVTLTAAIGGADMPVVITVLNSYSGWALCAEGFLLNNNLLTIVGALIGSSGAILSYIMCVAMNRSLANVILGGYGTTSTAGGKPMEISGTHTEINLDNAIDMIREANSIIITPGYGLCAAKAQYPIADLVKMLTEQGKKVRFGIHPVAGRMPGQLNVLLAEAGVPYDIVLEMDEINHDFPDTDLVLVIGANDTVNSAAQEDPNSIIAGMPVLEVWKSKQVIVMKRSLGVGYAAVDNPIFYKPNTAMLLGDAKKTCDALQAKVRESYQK
UniProt P16083: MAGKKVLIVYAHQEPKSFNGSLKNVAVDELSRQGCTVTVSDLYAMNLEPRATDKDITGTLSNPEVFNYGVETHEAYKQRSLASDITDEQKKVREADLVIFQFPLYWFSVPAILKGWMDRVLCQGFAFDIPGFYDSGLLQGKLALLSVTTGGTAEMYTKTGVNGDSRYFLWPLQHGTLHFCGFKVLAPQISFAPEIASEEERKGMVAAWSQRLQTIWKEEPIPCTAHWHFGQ
UniProt Q969T7: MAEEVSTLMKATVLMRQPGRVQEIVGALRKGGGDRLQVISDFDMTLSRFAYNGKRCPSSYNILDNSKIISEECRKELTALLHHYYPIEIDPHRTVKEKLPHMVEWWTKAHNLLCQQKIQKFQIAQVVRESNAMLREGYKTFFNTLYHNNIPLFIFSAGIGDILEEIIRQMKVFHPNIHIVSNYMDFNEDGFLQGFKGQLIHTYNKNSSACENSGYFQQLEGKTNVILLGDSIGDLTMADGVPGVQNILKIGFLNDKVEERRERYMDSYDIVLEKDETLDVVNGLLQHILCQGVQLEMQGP
UniProt Q8WUM0: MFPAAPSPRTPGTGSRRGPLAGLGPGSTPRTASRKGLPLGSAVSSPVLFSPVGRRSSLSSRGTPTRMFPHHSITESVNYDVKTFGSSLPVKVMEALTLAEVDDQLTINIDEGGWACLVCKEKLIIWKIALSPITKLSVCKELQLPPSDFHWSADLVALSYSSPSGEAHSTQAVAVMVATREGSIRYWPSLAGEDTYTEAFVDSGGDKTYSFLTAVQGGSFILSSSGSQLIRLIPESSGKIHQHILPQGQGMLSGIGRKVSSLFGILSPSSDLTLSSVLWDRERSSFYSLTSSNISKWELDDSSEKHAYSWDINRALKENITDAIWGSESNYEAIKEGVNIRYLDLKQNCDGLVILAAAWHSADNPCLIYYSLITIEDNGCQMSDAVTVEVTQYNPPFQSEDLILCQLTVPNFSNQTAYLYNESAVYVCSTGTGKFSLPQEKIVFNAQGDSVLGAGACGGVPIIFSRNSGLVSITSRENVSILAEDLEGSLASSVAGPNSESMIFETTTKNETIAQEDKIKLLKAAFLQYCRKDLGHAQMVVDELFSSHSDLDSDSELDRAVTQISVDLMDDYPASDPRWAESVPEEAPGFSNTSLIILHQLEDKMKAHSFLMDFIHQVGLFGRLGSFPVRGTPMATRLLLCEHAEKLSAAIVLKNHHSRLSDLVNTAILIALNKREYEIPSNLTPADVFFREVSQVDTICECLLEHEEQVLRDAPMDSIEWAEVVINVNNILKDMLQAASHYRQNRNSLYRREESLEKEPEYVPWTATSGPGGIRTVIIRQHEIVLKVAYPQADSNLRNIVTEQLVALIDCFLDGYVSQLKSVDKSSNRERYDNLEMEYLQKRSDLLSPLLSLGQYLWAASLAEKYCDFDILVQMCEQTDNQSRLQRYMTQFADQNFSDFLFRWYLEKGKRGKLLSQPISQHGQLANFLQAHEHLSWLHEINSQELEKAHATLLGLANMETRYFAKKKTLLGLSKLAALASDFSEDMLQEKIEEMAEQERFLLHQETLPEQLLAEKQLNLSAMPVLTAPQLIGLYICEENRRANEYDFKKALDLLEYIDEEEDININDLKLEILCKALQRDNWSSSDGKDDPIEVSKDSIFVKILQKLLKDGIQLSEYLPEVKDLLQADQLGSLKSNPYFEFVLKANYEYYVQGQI

Columns and labels:
Assay in all cases: log2 fold change, soluble protein after heating vs DMSO (PISA); higher = thermal stabilisation; K562 lysate, 10 uM; active = over 0.2 and 3.5 SD of the protein, either way, in both replicates (recomputed)
[1] = compound: C1=CC=C(C=C1)[C@H](COC2=CC3=C(C=C2)NC(=O)N3)NC(=O)C4=CC=CN(C4=O)CC5=CC(=C(C=C5)F)F
Outline: (§1)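 Thermal stability, expressed as log-two fold change relative to solvent controls, is given from duplicates. Crude K562 extract in PBS pH 7.4 with 1 mM MgCl2, at 1 mg/mL protein, was treated with 10 μM compound for 30 min and heated in aliquots for 3 min across 48°C-58°C. After pooling, adjustment to 0.5% NP-40 at 4°C and centrifugation at 21,000xg for 90 min, supernatant protein was measured by TMTpro 16plex LC-MS/MS with channel sums equalised.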

[2] = compound: CC1=C(SC2=C1C(=N[C@H](C3=NN=C(N32)C)CC(=O)N)C4=CC=C(C=C4)Cl)C
Outline: as §1

[3] = compound: CC1=C2C(=CC=C1)N=C(N(C2=O)C3=CC=CC=C3C)CN4C=NC5=C(N=CN=C54)N
Outline: as §1

[4] = compound: Cc1sc2c(c1C)C(c1ccc(Cl)cc1)=N[C@@H](CC(=O)OC(C)(C)C)c1nnc(C)n1-2
Outline: as §1

[5] = compound: c1ccc([C@@H]2C[C@H]2NC2CCNCC2)cc1
Outline: as §1

Measured: log2 fold change

NTAN1 (UniProt Q96AB6)
inactive: [1] 0.071 | [2] 0.01 | [3] 0.121 | [4] -0.045 | [5] -0.05

NRF1 isoform 4 (UniProt Q16656)
inactive: [1] 0.03 | [2] 0.015 | [3] 0.005 | [4] 0.069 | [5] 0.017

NPLOC4 isoform 2 (UniProt Q8TAT6)
inactive: [1] 0.035 | [2] 0.017 | [3] 0.025 | [4] -0.012 | [5] -0.064

NSMCE4A (UniProt Q9NXX6)
inactive: [1] 0.046 | [2] 0.002 | [3] -0.059 | [4] 0.117 | [5] 0.017

NSL1 (UniProt Q96IY1)
inactive: [1] 0.028 | [2] 0.012 | [3] -0.001 | [4] 0.053 | [5] -0.014

NPC2 (UniProt P61916)
inactive: [1] 0.052 | [2] -0.055 | [3] -0.013 | [4] -0.011 | [5] -0.032

NUDT5 (UniProt Q9UKK9)
inactive: [1] 0.053 | [2] -0.126 | [3] -0.012 | [4] -0.097 | [5] -0.158

NUDT7 (UniProt P0C024)
inactive: [1] 0.135 | [2] 0.15 | [3] 0.05 | [4] 0.157 | [5] 0.025

NSRP1 (UniProt Q9H0G5)
inactive: [1] 0.08 | [2] -0.014 | [3] -0.014 | [4] -0.011 | [5] 0.017

NT5C (UniProt Q8TCD5)
inactive: [1] 0.014 | [2] 0.022 | [3] -0.031 | [4] -0.05 | [5] 0.017

NT5DC3 (UniProt Q86UY8)
inactive: [1] 0.032 | [2] 0.001 | [3] 0.009 | [4] -0.025 | [5] -0.068

NOB1 (UniProt Q9ULX3)
inactive: [1] 0.004 | [2] -0.051 | [3] 0.038 | [4] -0.021 | [5] 0.13

NMNAT1 (UniProt Q9HAN9)
inactive: [1] 0.083 | [2] -0.011 | [3] -0.067 | [4] -0.057 | [5] 0.028

NPM3 (UniProt O75607)
inactive: [1] 0.172 | [2] -0.045 | [3] -0.009 | [4] -0.03 | [5] -0.157

NOP14 (UniProt P78316)
inactive: [1] 0.01 | [2] 0.015 | [3] 0.027 | [4] 0.006 | [5] -0.018

NT5C2 (UniProt P49902)
inactive: [1] -0.015 | [2] 0.016 | [3] -0.027 | [4] 0.042 | [5] 0.006

NTPCR (UniProt Q9BSD7)
inactive: [1] -0.015 | [2] 0.067 | [3] -0.015 | [4] 0.034 | [5] 0.029

NTMT1 (UniProt Q9BV86)
inactive: [1] -0.01 | [2] -0.036 | [3] -0.019 | [4] 0.02 | [5] 0.098

NME3 (UniProt Q13232)
inactive: [1] -0.069 | [2] 0.041 | [3] -0.003 | [4] 0.071 | [5] -0.006

NOP9 (UniProt Q86U38)
inactive: [1] 0.004 | [2] 0.003 | [3] -0.061 | [4] -0.02 | [5] 0.181

NNT (UniProt Q13423)
inactive: [1] -0.005 | [2] 0.052 | [3] 0 | [4] 0.015 | [5] 0.034

NUF2 (UniProt Q9BZD4)
inactive: [1] -0.03 | [2] 0.008 | [3] 0.018 | [4] 0.007 | [5] 0.016

NSMCE1 (UniProt Q8WV22)
inactive: [1] -0.034 | [2] 0.083 | [3] -0.004 | [4] -0.073 | [5] 0.017

NQO2 (UniProt P16083)
inactive: [1] -0.022 | [2] -0.047 | [3] -0.017 | [4] 0 | [5] -0.009

Two consecutive records from above:
NUF2 (UniProt Q9BZD4)
inactive: [1] -0.03 | [2] 0.008 | [3] 0.018 | [4] 0.007 | [5] 0.016

NSMCE1 (UniProt Q8WV22)
inactive: [1] -0.034 | [2] 0.083 | [3] -0.004 | [4] -0.073 | [5] 0.017

Additional entries follow:

NUCKS1 (UniProt Q9H1E3)
inactive: [1] 0.017 | [2] 0.008 | [3] -0.01 | [4] -0.055 | [5] -0.025

NT5C3B (UniProt Q969T7)
inactive: [1] 0.148 | [2] -0.054 | [3] 0.017 | [4] -0.004 | [5] -0.002

NUP133 (UniProt Q8WUM0)
inactive: [1] 0.05 | [2] 0.046 | [3] 0.014 | [4] 0.025 | [5] -0.052
